Data reported in article PMC10721265.
No constants are given. Whether binding was seen depends on the method and setting. Binding seen in cells or lysates may run through a third protein. Some results given as binding are weak or reduced against the parent protein; the word gives no strength.

How the values were obtained:
[1] = biological target: T1, A1CF (mouse (endogenous in liver)) (UniProt Q5YD48); test: co-IP; endogenous A1CF and TRIM21 in mouse liver lysate; RIPA buffer, Dynabeads protein G, washes with RIPA + 500 mM NaCl; Western blot
T1 sequence: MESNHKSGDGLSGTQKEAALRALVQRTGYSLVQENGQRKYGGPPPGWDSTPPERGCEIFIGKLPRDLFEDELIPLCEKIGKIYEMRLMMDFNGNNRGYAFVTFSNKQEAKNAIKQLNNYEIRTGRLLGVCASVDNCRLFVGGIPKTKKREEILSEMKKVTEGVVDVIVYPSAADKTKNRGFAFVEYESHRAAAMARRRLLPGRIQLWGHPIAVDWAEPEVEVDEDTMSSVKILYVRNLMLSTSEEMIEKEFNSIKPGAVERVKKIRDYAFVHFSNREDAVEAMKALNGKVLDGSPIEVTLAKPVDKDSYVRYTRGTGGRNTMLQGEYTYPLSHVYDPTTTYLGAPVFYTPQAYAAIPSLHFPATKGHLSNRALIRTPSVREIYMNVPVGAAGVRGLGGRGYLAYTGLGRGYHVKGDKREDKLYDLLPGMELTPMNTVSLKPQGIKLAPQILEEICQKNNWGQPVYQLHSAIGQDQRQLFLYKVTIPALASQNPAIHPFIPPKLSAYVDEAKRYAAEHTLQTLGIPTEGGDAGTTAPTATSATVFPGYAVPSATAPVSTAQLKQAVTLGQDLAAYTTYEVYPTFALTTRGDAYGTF

[2] = biological target: T1, A1CF (mouse (endogenous in liver)); test: co-IP; validation of RBM47 with A1CF (Supplemental Figure 1B); sample not given; IP procedure in RIPA buffer, Dynabeads protein G, Western blot

B1: TRIM21 E3 ubiquitin ligase (protein, UniProt Q62191 1-470)
chain: MSPSTTSKMSLEKMWEEVTCSICLDPMVEPMSIECGHCFCKECIFEVGKNGGSSCPECRQQFLLRNLRPNRHIANMVENLKQIAQNTKKSTQETHCMKHGEKLHLFCEEDGQALCWVCAQSGKHRDHTRVPIEEAAKVYQEKIHVVLEKLRKGKELAEKMEMDLTMQRTDWKRNIDTQKSRIHAEFALQNSLLAQEEQRQLQRLEKDQREYLRLLGKKEAELAEKNQALQELISELERRIRGSELELLQEVRIILERSGSWNLDTLDIDAPDLTSTCPVPGRKKMLRTCWVHITLDRNTANSWLIISKDRRQVRMGDTHQNVSDNKERFSNYPMVLGAQRFSSGKMYWEVDVTQKEAWDLGVCRDSVQRKGQFSLSPENGFWTIWLWQDSYEAGTSPQTTLHIQVPPCQIGIFVDYEAGVVSFYNITDHGSLIYTFSECVFAGPLRPFFNVGFNYSGGNAAPLKLCPLKM
For B1, the binding [1] was “binds”.

B2: RBM47 (protein, UniProt Q91WT8 1-590)
chain: MTAEDSATAMNSDPTVGSSTKVPEGVAGAPNEAALLALIERTGYTMVQENGQRKYGGPPPGWEGPHPQRGCEVFVGKIPRDVYEDELVPVFETVGRIYELRLMMDFDGKNRGYAFVMYCHKHEAKRAVRELNNYEIRPGRLLGVCCSVDNCRLFIGGIPKMKKRGEILEEIAKVTEGVLNVIVYASAADKMKNRGFAFVEYESHRAAAMARRKLMPGRIQLWGHQIAVDWAEPEIDVDEDVMQTVKILYVRNLMIETTEETIKKSFGQFNPGCVERVKKIRDYAFVHFTSREDAVHAMNNLNGTELEGSCLEVTLAKPVDKEQYSRYQKAAKGGGGSAEAVAQQPSYVYSCDPYTLAYYGYPYNALIGPNRDYFVKTGSIRGRGRGAAGNRTPGPRGSYLGGYSAGRGIYSRYHEGKGKQQEKGYELVPNLEISPVNPVAIKPGTVAIPAIGAQYSMFQAAPAPKIIEDGKIHTMEHMISPIAVQPDPATAAAAAAAAAAAAVIPAVSTPPPFQGRPITPVYTVAPNVQRIPTAGIYGASYVPFAAPATATIATLQKNAAAAVYGGYAGYIPQAFPAALQVPIHDVYQTY
For B2, the binding [2] was “binds”.
